Data as given in PubChem BioAssay AID743121 (NCATS, 2013)
Assay: 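Genes whose silencing strengthens cell killing by camptothecin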 (primary screen). System: MDA-MB-231 cells, a human breast cancer line. Reagents: single siRNA against human genes, 20 nM siRNA (0.8 pmol per well). Timing: 120 h (drug added 48 h after transfection, read 72 h later). Treatment: camptothecin 20 nM (about EC30) for 72 h; vehicle 0.1% DMSO in parallel plates. Read-out: 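CellTiter-Glo ATP signal, scaled to control siRNA as percent viability; sensitisation given as log2 of untreated divided by camptothecin-treated viability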. Reading the numbers: log2 vehicle/camptothecin viability: higher = stronger sensitisation to camptothecin; viability with camptothecin and viability without drug: higher = more viable cells. Active means: 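Each gene scored by redundant siRNA activity (RSA) over its individual siRNA ratios; a gene is called active at p < 0.001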.
Shown is one part, drawn at random, of about 26,000 reagents. In the full data, 167 (0.63%) were called active. 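Calls are per gene from RSA p-values that are not deposited; an individual active-marked siRNA can sensitise only weakly.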 A number with no mark means an inactive call. Reagents against one gene are numbered here.

The first 2 records, ahead of the listing:
Target gene,siRNA no.,log2 vehicle/camptothecin viability,viability with camptothecin (% of control),viability without drug (% of control)
ANXA2 (annexin A2),1,0.137,97.2,107
ANXA2 (annexin A2),2,0.0612,22.6,23.5

The list itself, from the first entry:
Target gene,siRNA no.,log2 vehicle/camptothecin viability,viability with camptothecin (% of control),viability without drug (% of control)
ANXA2 (annexin A2),1,0.137,97.2,107
ANXA2 (annexin A2),2,0.0612,22.6,23.5
ANXA2 (annexin A2),3,-0.257,50.1,42
ANXA2 (annexin A2),4,0.365,65.5,84.4
NRXN2 (neurexin 2),1,-0.33,76.9,61.1
NRXN2 (neurexin 2),2,-0.54,20.8,14.3
NRXN2 (neurexin 2),3,0.15,47,52.1
NRXN2 (neurexin 2),4,-0.421,42.3,31.6
STX1B (syntaxin 1B),1,-0.0499,70,67.6
STX1B (syntaxin 1B),2,0.0142,90.5,91.4
STX1B (syntaxin 1B),3,-0.705,102,62.5
STX1B (syntaxin 1B),4,-0.201,74,64.3
CASP9 (caspase 9),1,-0.427,99.5,74
CASP9 (caspase 9),2,-0.0273,89.1,87.4
CASP9 (caspase 9),3,-0.308,59.9,48.4
ACVR1 (activin A receptor type 1),1,0.232,62.5,73.4
ACVR1 (activin A receptor type 1),2,-0.147,111,100
ACVR1 (activin A receptor type 1),3,-0.182,88.7,78.2
ACVR1 (activin A receptor type 1),4,-0.371,130,100
TPM1 (tropomyosin 1),1,0.769,9.89,16.8
TPM1 (tropomyosin 1),2,0.291,50.8,62.1
TPM1 (tropomyosin 1),3,-0.426,46.6,34.7
MRPL3 (mitochondrial ribosomal protein L3),1,-0.241,82.3,69.7
MRPL3 (mitochondrial ribosomal protein L3),2,-0.36,80.9,63
MRPL3 (mitochondrial ribosomal protein L3),3,-0.17,107,94.9
MRPL3 (mitochondrial ribosomal protein L3),4,0.109,70,75.5
ALDH8A1 (aldehyde dehydrogenase 8 family member A1),1,-0.0358,105,102
ALDH8A1 (aldehyde dehydrogenase 8 family member A1),2,1.16,22.4,50.1
ALDH8A1 (aldehyde dehydrogenase 8 family member A1),3,0.356,58.4,74.8
ALDH8A1 (aldehyde dehydrogenase 8 family member A1),4,-0.443,70.5,51.8
